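A cell-based FRET test of anthrax lethal toxin entry, tracked through the 460 nm emission signal; the cell line is not named here.
Each compound was tested as a concentration series from about 0.0005 to 40 µM.
The number is the fitted AC50 of the 460 nm signal alone; lower values mean a more potent effect. A falling signal goes with compounds filed as inhibitors or cytotoxic, a rising one with activators or fluorescent compounds (inferred from the filed classes).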

Values are in nM.
Common to all entries: measured here: 460 nm channel.
Part of the compounds only, not a random draw; the main read-out is not listed here.
Potencies fitted to partial, single-point or poorly fitting curves are rough.
The first word of each remark tells which way the curve ran; it can be opposite to the aim of the assay.

For Cn1c(SCC(=O)Nc2ccc(N3CCOCC3)c(Cl)c2)nnc1C(O)c1ccccc1 (centres unmarked) the result was AC50 1995 nM (rising, single point). Result for COc1ccccc1NC(=O)CSc1nnc(COc2ccc(Cl)cc2)n1Cc1ccco1 was AC50 31622 nM (falling, single point). Result for Cn1c(=O)n(CCc2ccccc2)c(=O)c2c1nc1n2CCCN1CCc1ccccc1 was AC50 31622 nM (falling, single point). Result for CCOC(=O)c1[nH]c(C)c(C(=O)Nc2cc(OC)ccc2OC)c1C was AC50 5012 nM (falling, partial curve).

O=C(CCN1C(=O)c2ccccc2C1=O)N1CCC(c2ccccc2)C1 (centres unmarked) gave AC50 50.12 nM (falling, full curve, poor fit). CCOC(=O)Cn1c(=O)oc2cc(S(=O)(=O)Nc3cc(Cl)ccc3OC)ccc21 read AC50 31622 nM (falling, single point). With CC(C)(Sc1ccc(CCN(CCCCC2CCCCC2)C(=O)NC2CCCCC2)cc1)C(=O)O the assay gave AC50 316.2 nM (falling, full curve, poor fit). Result for O=C(Nc1nc2ccccc2[nH]1)C1CC(=O)N(c2ccc3c(c2)OCCO3)C1 (centres unmarked) was AC50 794.3 nM (rising, full curve).

CN(CCc1ccc(Cl)c(Cl)c1)[C@H]1CCCC[C@H]1N1CCCC1 read AC50 31622 nM (falling, partial curve, poor fit). With Cc1cc(C)nc(N2CCCC(C(=O)NCCC3=CCCCC3)C2)n1 (centres unmarked) the assay gave AC50 3.981 nM (falling, full curve, poor fit). Result for COc1ccccc1CNc1cc(-c2cccnc2)ncn1 was AC50 31622 nM (falling, single point). O=c1c(-c2cc(F)cc(F)c2)nc2cnc(N3CCNCC3)nc2n1Cc1ccc(F)cc1 gave AC50 794.3 nM (rising, full curve).

CCC1C(C#N)=C(SC)NC2=C1C(=O)CC(C)(C)C2 (centres unmarked) gave AC50 12589 nM (rising, single point). Result for Cc1ccc(N2C(N)=C(C#N)C(c3cccnc3)C3=C2CCCC3=O)cc1 (centres unmarked) was AC50 7943 nM (rising, partial curve). For Nc1ncnc2c1c(-c1ccc(Oc3ccccc3)cc1)cn2C1CCCC1 the result was AC50 12589 nM (falling, partial curve). For O=C(Nc1ccc(N2CCCC2)cc1)c1ccc(Br)o1 the result was AC50 7943 nM (falling, partial curve).

Result for CC(C)(C)NC(=O)Cn1nnc(-c2cccs2)n1 was AC50 7.943 nM (falling, full curve, poor fit). Result for O=C(NCc1cccs1)c1ccncc1 was AC50 199.5 nM (falling, partial curve). Oc1ccc2c3c1O[C@H]1c4oc5ccccc5c4C[C@]4(O)[C@H](C2)N(CC2CC2)CC[C@@]314 read AC50 25118 nM (falling, partial curve). Result for Cc1c(C(=O)OC(C)CCN(C)C)oc2ccccc12 (centres unmarked) was AC50 5012 nM (falling, full curve, poor fit).

Result for COc1ccccc1OCC(=O)N(Cc1nc(-c2ccc(Cl)cc2)no1)C(C)C was AC50 12589 nM (falling, partial curve). Cc1ccc(C)c(N2CCN(C(=O)C3CCN(c4nc(C)cc(C)n4)CC3)CC2)c1 gave AC50 251.2 nM (falling, full curve, poor fit). With O=C1CC(c2ccco2)Cc2nc(Nc3ccc(F)cc3)ncc21 (centres unmarked) the assay gave AC50 100 nM (rising, full curve, poor fit). For COc1ccccc1CN1CC2(CCN(C(=O)c3cc(C(F)(F)F)cc(C(F)(F)F)c3)CC2)C1 the result was AC50 3162 nM (rising, partial curve).

With CCOC(=O)C1=C(N)Oc2ccc(Br)cc2[C@@H]1[C@@H](C#N)C(=O)OCC the assay gave AC50 31622 nM (falling, single point). CN(C)Cc1ccccc1-c1nccc(N(C)C)n1 gave AC50 25118 nM (rising, single point). Result for Cc1ccc(CNC(=O)C2CNc3cc(C)ccc3O2)cc1 (centres unmarked) was AC50 125.9 nM (falling, full curve, poor fit). CN1CCN(c2ccc(Cl)cc2NC(=O)c2cccc(S(=O)(=O)N(C)C)c2)CC1 gave AC50 794.3 nM (rising, full curve, poor fit).

With CC1Cc2ccccc2N1S(=O)(=O)c1cccc2nsnc12 (centres unmarked) the assay gave AC50 1000 nM (falling, full curve). Result for CCc1ccc(NC(=O)c2ccc3c(c2)C(=O)N(Cc2ccco2)C3=O)cc1 was AC50 10000 nM (falling, partial curve). For Cc1cc(C(=O)N2CCc3ccccc32)c2cc(F)ccc2n1 the result was AC50 6310 nM (falling, full curve). Result for Cc1cc(C)c2cc(C#N)c(SCC(=O)NCc3ccco3)nc2c1 was AC50 100 nM (falling, full curve, poor fit).

The first 2 entries again:

SMILES,AC50 (nM),curve
Cn1c(SCC(=O)Nc2ccc(N3CCOCC3)c(Cl)c2)nnc1C(O)c1ccccc1 (centres unmarked),1995,"rising, single point"
COc1ccccc1NC(=O)CSc1nnc(COc2ccc(Cl)cc2)n1Cc1ccco1,31622,"falling, single point"

Source: PubChem BioAssay AID912 (NCATS, 2007).